No constants are given. Whether binding was seen depends on the method and setting. Binding calls can cover weak binding; strength is not graded here.

Sequences of proteins named here, by UniProt entry; tags and fusion partners are left off. A change or cut given only in a name is not applied to a line headed by its entry.
UniProt F4IMJ9: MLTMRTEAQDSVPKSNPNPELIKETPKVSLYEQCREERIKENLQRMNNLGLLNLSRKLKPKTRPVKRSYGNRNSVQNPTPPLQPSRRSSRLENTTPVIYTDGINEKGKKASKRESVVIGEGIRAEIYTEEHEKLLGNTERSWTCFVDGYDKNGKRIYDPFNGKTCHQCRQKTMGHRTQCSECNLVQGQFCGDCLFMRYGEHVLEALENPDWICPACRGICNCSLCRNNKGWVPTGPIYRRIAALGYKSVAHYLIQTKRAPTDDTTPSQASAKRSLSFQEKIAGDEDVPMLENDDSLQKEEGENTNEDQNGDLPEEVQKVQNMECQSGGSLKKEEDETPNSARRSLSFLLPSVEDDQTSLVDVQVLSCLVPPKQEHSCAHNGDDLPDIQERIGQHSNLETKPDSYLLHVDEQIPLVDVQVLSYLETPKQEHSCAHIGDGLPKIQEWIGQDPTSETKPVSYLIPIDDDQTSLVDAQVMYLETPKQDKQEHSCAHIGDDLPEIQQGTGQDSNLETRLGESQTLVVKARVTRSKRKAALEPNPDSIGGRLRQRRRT

For assay [1], the target named is DECREASE IN DNA …ON 1 (DDM1), recombinant (Arabidopsis thaliana) (UniProt Q9XFH4). Description: pull-down; in vitro pulldown of recombinant CDCA7α and CDCA7β with DDM1, detected via western blot; three replicates; both purified. (In general: In western blotting, separated proteins are transferred to a membrane and probed.)
The target is the same in assay [2]. Description: pull-down; in vitro pulldown of recombinant CDCA7α and CDCA7β with DDM1 at 150 mM NaCl (more restrictive salt); two pulldowns with different DDM1 tags; both purified.

Turning to “CELL DIVISION CYCLE-ASSOCIATED PROTEIN 7 beta (CDCA7β), recombinant (from UniProt F4IMJ9)”, the binding entry in assay [1] and in assay [2] was “binds” each time.

Values taken from paper PMC12711577.
